Measured data: PubChem BioAssay AID504791 (Drosophila RNAi Screening Center, 2011)
Aim: 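Genes of the fly required for silencing by miRNA, siRNA or endo-siRNA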 (primary screen). Cells: Drosophila S2-derived reporter cells. Knock-down reagent: long dsRNA against Drosophila genes, about 150-250 ng dsRNA per well (siRNA assay); about 80-120 ng (miRNA assay). Time to read-out: about 5 days (siRNA assay); about 4 days (miRNA assay). Treatment: copper sulfate induction of reporters: 25 µM (siRNA assay); 200 mM stated (miRNA assay), 1-2 days before reading. Measured: 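Per-well ratio of Renilla over firefly light, expressed relative to that plate's average ratio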. Hit rule: 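First-pass picks had plate-scaled ratios over 1.5 for the siRNA assay, over 1.6 for the miRNA assay, or under 0.6; two distinct dsRNAs had to score alike on retest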.
The deposit covers about 23,000 reagents; below is a random part of those that have a named target and a result. Of all reagents, 199 (0.86%) are marked active. 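Plate-scaled ratios behind the calls are not deposited; printed light signals are raw; many rows marked increased or decreased are still called inactive.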 Entries without a mark were called inactive. The numbers tell different reagents against one gene apart. A plus sign joins genes that one reagent is predicted to hit. Further read-outs or replicates are left out here. No sequences are given here. Not given: the direction of the score.

no.	gene	reagent no.	stable siRNA reporter change	miRNA reporter change	stable assay Renilla, run 1 (luminescence)
1	CG31267	1			7162
2	CG15549	1			5592
3	CG34277 + CG31542	1			9237
4	Gr36b	1			9222
5	His2B:CG33894 + His2B:CG33872 + His2B:CG33902 + 20 more	1		reporter ratio raised past the hit cutoff	5196
6	ninaE	1			6871
7	H15	1			7586
8	H15	2	reporter ratio raised past the hit cutoff		6443
9	Cyp312a1	1			7154
10	coro	1			1.53e5
11	coro	2			10685
12	CG13810	1			5762
13	CG13810	2			4787
14	S2P	1			5007
15	Taf11	1			5911
16	snu	1			7981
17	CG31832	1			8318
18	hb	1			7095
19	mRpL21	1			6922
20	CtsL3	1			8195
21	CG7164	1			6891
22	Fer2LCH	1			6944
23	CG10466	1			7451
24	sPLA2	1			5883
25	Boot	1			6464
26	ssh	1			7826
27	ssh	2		reporter ratio raised past the hit cutoff	
28	Cec-Psi1	1			10322
29	zetaCOP	1			5955
30	ppk5	1			5224
31	alpha-Catr	1			4487
32	Rbp6	1			5568
33	Rbp6	2			7031
34	Rbp6	3			6716
35	Rbp6	4			7146
36	Rbp6	5			5706
37	zfh1	1			4870
38	zfh1	2			5732
39	Dic4	1			6878
40	CG1946	1			6342
41	CG32198	1			5175

The list goes on; the last 10 above are carried over.
no.	gene	reagent no.	stable siRNA reporter change	miRNA reporter change	stable assay Renilla, run 1 (luminescence)
32	Rbp6	1			5568
33	Rbp6	2			7031
34	Rbp6	3			6716
35	Rbp6	4			7146
36	Rbp6	5			5706
37	zfh1	1			4870
38	zfh1	2			5732
39	Dic4	1			6878
40	CG1946	1			6342
41	CG32198	1			5175
42	CG30109	1			6279
43	Drat	1			8855
44	Hmt-1	1		reporter ratio raised past the hit cutoff	8490
45	CG31681	1			6179
46	CAH9	1			5571
47	PAN2	1	reporter ratio lowered past the hit cutoff		3399
48	schuy	1			7450
49	CG31776	1			7471
50	CG17470	1			3.65e5
51	CG2765	1		reporter ratio lowered past the hit cutoff	14256
52	vilya	1			6230
53	CPT2	1			12147
54	cl	1			1.81e5
55	CG14341	1	reporter ratio lowered past the hit cutoff		5186
56	Cyt-c1	1			7971
57	CG32820 + CG17450 + CG32819	1			9186
58	CG32820 + CG17450 + CG32819	2			4339
59	CG5273	1			5858
60	Tsf2	1			7522
61	Npc2d	1			6610
62	CG15167	1			6620
63	MED24	1			4168
64	CG11755	1			7487
65	CG12496	1			6619
66	sba	1			3783
67	sba	2			3251
68	CG13376	1			5650
69	Sym	1			6567
70	ko	1			7170
71	CG30423	1			4726
72	CG14983	1			5662
73	scw	1			4244
74	scw	2			6442
75	Ack-like	1			7932
76	CG14615	1			6387
77	bond	1			8980
78	CG12115	1			6023
79	CG17237	1			7258
80	Rab9D + Rab9Fa + Rab9E	1			5983
81	CG42262 (retired record)	1			4384
82	CG42262 (retired record)	2			5704
83	sty	1			5767
84	sty	2			5135
